Patent publication US20250289837A1, “MITOCHONDRIOTROPIC HETEROARYL BENZAMIDE POTASSIUM CHANNEL KV1.3 INHIBITORS” (UNIVERZA V LJUBLJANI, priority 2022, published 2025)
Some entries share one result that the patent states for a list of compounds. At least one structure is not confirmed: it was looked up by name or label, or the drawing left a doubt.

System: pancreatic cancer cell line Colo 357
Assay: Cytotoxicity in conventional 2D cultures, Cytotox green, Incucyte live cell imaging
Format: cell-based
Conditions: 50 μM, 24 h, Colo 357 2D culture, FIG. 1
Protocol: FIG. 1. Cytotoxicity of the indicated compounds. Cells plated on 96-well plates were incubated in the presence of 50 μM of the indicated compounds and fluorescence of the dead-cell marker Cytotox green was monitored over time. In the Figure, fluorescence values after 24 h are reported normalized to the value obtained in the presence of DMSO. […] The symbols indicate biological replicates (with three technical replicates each).
To test the activity of the compounds on biological systems, we chose the pancreatic cancer cell line Colo 357, which expresses Kv1.3 and is sensitive to cell-permeant Kv1.3 inhibitors (Zaccagnino et al., Oncotarget 8, 38276-38293, 2017). Growth, cell viability and apoptosis were all determined by high content imaging in a Incucyte (Sartorius) live cell imaging device. Images were taken every hour for several days after addition of the compounds dissolved in DMSO (time 0) and the corresponding indicators, CytotoxGreen or CytotoxRed for cytotoxicity and the green Caspase 3/7 activity reporter for apoptosis.
The first screening for cytotoxicity was performed on conventional 2D cultures (FIG. 1).

COc1ccccc1C(=O)NCC1(c2ccsc2)CCC(OC(=O)NCCCC[P+](c2ccccc2)(c2ccccc2)c2ccccc2)CC1.[I-] [Example 8, (4-(((((1S,4S)-4-((2-Methoxybenzamido)methyl)-4-(thiophen-3-yl)cyclohexyl)oxy)carbonyl)amino)butyl)triphenylphosphonium iodide]
Cytotoxicity: Cytotox green fluorescence normalized to DMSO: over 15 times
